Assay results published in a compilation of properties of binary mixtures (doi:10.1007/s10953-017-0608-9).
Some of these densities may be calculated back from excess volumes.

Assay: xn = mol fraction of the nth substance listed
Settings: 101 kPa

Q: With `CCCCCCCCn1cc[n+](C)c1.[Br-]` + O as the molecule, how does the mass density (288.15 K, x1 = 0.0001) read?
A: 999.2 kg/m3

Q: What about the mass density (288.15 K, x1 = 0.0002) of the same molecule?
A: 999.4 kg/m3

Q: What about the mass density (298.15 K, x1 = 0.0001) of the same molecule?
A: 997.3 kg/m3
